Counter-ions that a name gives are not always drawn. Like-named read-outs stand apart in the source and are kept apart here. Some entries share one result that the patent states for a list of compounds. At least one structure is not confirmed: it was looked up by name or label, or the drawing left a doubt.
Columns and labels:
Assay type in all cases: in vivo
[1] = test system: corn planthopper (Peregrinus maidis); settings: 6 days, maize plant, very good to excellent levels of control efficacy
Protocol: For evaluating control of corn planthopper (Peregrinus maidis) through contact and/or systemic means, the test unit consisted of a small open container with a 3-4-day-old maize plant (spike) inside. White sand was added to the top of the soil prior to application. Test compounds were formulated and sprayed at 50 ppm and/or 10 ppm, and replicated three times as described for Test A. After spraying, the test units were allowed to dry for 1 h before they were post-infested with ˜15-20 nymphs (18 to 21 day old) by sprinkling them onto the sand with a salt shaker. A black, screened cap was placed on the top of each test unit, and the test units were held for 6 days in a growth chamber at 22-24° C. and 50-70% relative humidity. Each test unit was then visually assessed for insect mortality.

[2] = test system: diamondback moth (Plutella xylostella); experiment: Test A: control of diamondback moth on radish plant, foliar spray; settings: 6 days, very good to excellent levels of control efficacy
[3] = test system: fall armyworm (Spodoptera frugiperda); experiment: Test B: control of fall armyworm on maize plant, foliar spray; settings: very good to excellent levels of control efficacy
[4] = test system: potato leafhopper (Empoasca fabae); settings: 6 days, Soleil bean plant, very good to excellent levels of control efficacy
[5] = test system: green peach aphid (Myzus persicae); settings: 6 days, radish plant
Description: For evaluating control of green peach aphid (Myzus persicae) through contact and/or systemic means, the test unit consisted of a small open container with a 12-15-day-old radish plant inside. This was pre-infested by placing on a leaf of the test plant 30-40 aphids on a piece of leaf excised from a culture plant (cut-leaf method). The aphids moved onto the test plant as the leaf piece desiccated. After pre-infestation, the soil of the test unit was covered with a layer of sand.
Test compounds were formulated and sprayed at 50 ppm and/or 10 ppm as described for Test A. The applications were replicated three times. After spraying of the formulated test compound, each test unit was allowed to dry for 1 h and then a black, screened cap was placed on top. The test units were held for 6 days in a growth chamber at 19-21° C. and 50-70% relative humidity. Each test unit was then visually assessed for insect mortality.

[6] = test system: Western Flower Thrips (Frankliniella occidentalis); experiment: Test G: control of Western Flower Thrips on Soleil bean plant, contact and/or systemic; settings: 7 days, very good to excellent levels of control efficacy

## Cc1cccn2c(=O)c(-c3cccc(C(F)(F)F)c3)c([O-])[n+](Cc3cnc(Cl)s3)c12 [Compound 29, 1-[(2-chloro-5-thiazolyl)methyl]-2-hydroxy-9-methyl-4-oxo-3-[3-(trifluoromethyl)phenyl]-4H-pyrido[1,2-a]pyrimidinium inner salt]
[1]; sprayed at 10 ppm
  control efficacy: mortality: ≥ 80%
[1]; sprayed at 50 ppm
  control efficacy: mortality: ≥ 80%
[2]; sprayed at 10 ppm
  control efficacy: feeding damage (40% or less feeding damage and/or 100% mortality): ≤ 40%
[2]; sprayed at 50 ppm
  control efficacy: feeding damage (40% or less feeding damage and/or 100% mortality): ≤ 40%
[3]; sprayed at 10 ppm
  control efficacy: feeding damage (40% or less feeding damage and/or 100% mortality): ≤ 40%
[3]; sprayed at 50 ppm
  control efficacy: feeding damage (40% or less feeding damage and/or 100% mortality): ≤ 40%
[4]; sprayed at 10 ppm
  control efficacy: mortality: ≥ 80%
[4]; sprayed at 50 ppm
  control efficacy: mortality: ≥ 80%
[5]; sprayed at 10 ppm
  mortality: at least 80%
[5]; sprayed at 50 ppm
  mortality: at least 80%

## Cc1cccn2c(=O)c(-c3ccccc3)c([O-])[n+](Cc3cnc(Cl)s3)c12 [Compound 47, 1-[(2-chloro-5-thiazolyl)methyl]-2-hydroxy-9-methyl-4-oxo-3-phenyl-4H-pyrido[1,2-a]pyrimidinium inner salt]
[1]; sprayed at 10 ppm
  control efficacy: mortality: ≥ 80%
[1]; sprayed at 50 ppm
  control efficacy: mortality: ≥ 80%
[2]; sprayed at 10 ppm
  control efficacy: feeding damage (40% or less feeding damage and/or 100% mortality): ≤ 40%
[2]; sprayed at 50 ppm
  control efficacy: feeding damage (40% or less feeding damage and/or 100% mortality): ≤ 40%
[3]; sprayed at 10 ppm
  control efficacy: feeding damage (40% or less feeding damage and/or 100% mortality): ≤ 40%
[3]; sprayed at 50 ppm
  control efficacy: feeding damage (40% or less feeding damage and/or 100% mortality): ≤ 40%
[4]; sprayed at 10 ppm
  control efficacy: mortality: ≥ 80%
[4]; sprayed at 50 ppm
  control efficacy: mortality: ≥ 80%
[5]; sprayed at 10 ppm
  mortality: at least 80%
[5]; sprayed at 50 ppm
  mortality: at least 80%

## Cc1cccn2c(=O)c(-c3ccc(F)cc3F)c([O-])[n+](Cc3cnc(Cl)s3)c12 [Compound 59, 1-[(2-chloro-5-thiazolyl)methyl]-3-(2,4-difluorophenyl)-2-hydroxy-9-methyl-4-oxo-4H-pyrido[1,2-a]pyrimidinium inner salt]
[1]; sprayed at 10 ppm
  control efficacy: mortality: ≥ 80%
[1]; sprayed at 50 ppm
  control efficacy: mortality: ≥ 80%
[2]; sprayed at 10 ppm
  control efficacy: feeding damage (40% or less feeding damage and/or 100% mortality): ≤ 40%
[2]; sprayed at 50 ppm
  control efficacy: feeding damage (40% or less feeding damage and/or 100% mortality): ≤ 40%
[3]; sprayed at 10 ppm
  control efficacy: feeding damage (40% or less feeding damage and/or 100% mortality): ≤ 40%
[3]; sprayed at 50 ppm
  control efficacy: feeding damage (40% or less feeding damage and/or 100% mortality): ≤ 40%
[4]; sprayed at 10 ppm
  control efficacy: mortality: ≥ 80%
[4]; sprayed at 50 ppm
  control efficacy: mortality: ≥ 80%
[5]; sprayed at 10 ppm
  mortality: at least 80%
[5]; sprayed at 50 ppm
  mortality: at least 80%

## Cc1ncc(C[n+]2c([O-])c(-c3cccc(OC(F)(F)F)c3)c(=O)n3cccc(C)c32)s1 [Compound 71, 2-hydroxy-9-methyl-1-[(2-methyl-5-thiazolyl)methyl]-4-oxo-3-[3-(trifluoromethoxy)phenyl]-4H-pyrido[1,2-a]pyrimidinium inner salt]
[1]; sprayed at 50 ppm
  control efficacy: mortality: ≥ 80%
[2]; sprayed at 10 ppm
  control efficacy: feeding damage (40% or less feeding damage and/or 100% mortality): ≤ 40%
[2]; sprayed at 50 ppm
  control efficacy: feeding damage (40% or less feeding damage and/or 100% mortality): ≤ 40%
[3]; sprayed at 10 ppm
  control efficacy: feeding damage (40% or less feeding damage and/or 100% mortality): ≤ 40%
[3]; sprayed at 50 ppm
  control efficacy: feeding damage (40% or less feeding damage and/or 100% mortality): ≤ 40%
[4]; sprayed at 10 ppm
  control efficacy: mortality: ≥ 80%
[4]; sprayed at 50 ppm
  control efficacy: mortality: ≥ 80%
[5]; sprayed at 50 ppm
  mortality: at least 80%

## Cc1cc(C(F)(F)F)ccc1-c1cc(-c2c([O-])[n+](Cc3cnc(Cl)s3)c3c(C)cccn3c2=O)ccc1F [Compound 364]
[2]; sprayed at 10 ppm
  control efficacy: feeding damage (40% or less feeding damage and/or 100% mortality): ≤ 40%
[3]; sprayed at 10 ppm
  control efficacy: feeding damage (40% or less feeding damage and/or 100% mortality): ≤ 40%
[4]; sprayed at 10 ppm
  control efficacy: mortality: ≥ 80%
[4]; sprayed at 50 ppm
  control efficacy: mortality: ≥ 80%
[6]; sprayed at 10 ppm
  control efficacy: plant damage (30% or less plant damage and/or 100% mortality): ≤ 30%
[6]; sprayed at 50 ppm
  control efficacy: plant damage (30% or less plant damage and/or 100% mortality): ≤ 30%

## Cc1cccn2c(=O)c(-c3ccc(F)c(-c4ccc(Cl)cc4C(F)(F)F)c3)c([O-])[n+](Cc3cnc(Cl)s3)c12 [Compound 368]
[2]; sprayed at 10 ppm
  control efficacy: feeding damage (40% or less feeding damage and/or 100% mortality): ≤ 40%
[3]; sprayed at 10 ppm
  control efficacy: feeding damage (40% or less feeding damage and/or 100% mortality): ≤ 40%
[4]; sprayed at 10 ppm
  control efficacy: mortality: ≥ 80%
[4]; sprayed at 50 ppm
  control efficacy: mortality: ≥ 80%
[6]; sprayed at 50 ppm
  control efficacy: plant damage (30% or less plant damage and/or 100% mortality): ≤ 30%

## Cc1cccn2c(=O)c(-c3ccc(Cl)c(-c4ccc(Cl)cc4F)c3)c([O-])[n+](Cc3cnc(Cl)s3)c12 [Compound 369]
[2]; sprayed at 10 ppm
  control efficacy: feeding damage (40% or less feeding damage and/or 100% mortality): ≤ 40%
[3]; sprayed at 10 ppm
  control efficacy: feeding damage (40% or less feeding damage and/or 100% mortality): ≤ 40%
[4]; sprayed at 50 ppm
  control efficacy: mortality: ≥ 80%
[6]; sprayed at 10 ppm
  control efficacy: plant damage (30% or less plant damage and/or 100% mortality): ≤ 30%
[6]; sprayed at 50 ppm
  control efficacy: plant damage (30% or less plant damage and/or 100% mortality): ≤ 30%

## COc1ccc(-c2c([O-])[n+](Cc3cnc(Cl)s3)c3c(C)cccn3c2=O)cc1-c1ccc(C(F)(F)F)cc1C [Compound 377]
[2]; sprayed at 10 ppm
  control efficacy: feeding damage (40% or less feeding damage and/or 100% mortality): ≤ 40%
[3]; sprayed at 10 ppm
  control efficacy: feeding damage (40% or less feeding damage and/or 100% mortality): ≤ 40%
[4]; sprayed at 50 ppm
  control efficacy: mortality: ≥ 80%
[6]; sprayed at 50 ppm
  control efficacy: plant damage (30% or less plant damage and/or 100% mortality): ≤ 30%

## COc1ccc(-c2c([O-])[n+](Cc3cnc(Cl)s3)c3c(C)cccn3c2=O)cc1-c1ccc(Cl)cc1C [Compound 378]
[2]; sprayed at 10 ppm
  control efficacy: feeding damage (40% or less feeding damage and/or 100% mortality): ≤ 40%
[3]; sprayed at 10 ppm
  control efficacy: feeding damage (40% or less feeding damage and/or 100% mortality): ≤ 40%
[4]; sprayed at 50 ppm
  control efficacy: mortality: ≥ 80%
[6]; sprayed at 50 ppm
  control efficacy: plant damage (30% or less plant damage and/or 100% mortality): ≤ 30%

## C/C=C\Cc1c([O-])[n+](Cc2cnc(Cl)s2)c2c(C)cccn2c1=O [Compound 383]
[2]; sprayed at 10 ppm
  control efficacy: feeding damage (40% or less feeding damage and/or 100% mortality): ≤ 40%
[5]; sprayed at 50 ppm
  mortality: at least 80%

## Cc1cc(C(F)(F)F)ccc1-c1cc(Cl)cc(-c2c([O-])[n+](Cc3cnc(Cl)s3)c3c(C)cccn3c2=O)c1 [Compound 407]
[2]; sprayed at 10 ppm
  control efficacy: feeding damage (40% or less feeding damage and/or 100% mortality): ≤ 40%
[3]; sprayed at 10 ppm
  control efficacy: feeding damage (40% or less feeding damage and/or 100% mortality): ≤ 40%
[4]; sprayed at 50 ppm
  control efficacy: mortality: ≥ 80%
[6]; sprayed at 50 ppm
  control efficacy: plant damage (30% or less plant damage and/or 100% mortality): ≤ 30%

## Cc1cccn2c(=O)c(-c3cc(-c4ccc(C(F)(F)F)cc4F)ccc3F)c([O-])[n+](Cc3cnc(Cl)s3)c12 [Compound 421]
[2]; sprayed at 10 ppm
  control efficacy: feeding damage (40% or less feeding damage and/or 100% mortality): ≤ 40%
[3]; sprayed at 10 ppm
  control efficacy: feeding damage (40% or less feeding damage and/or 100% mortality): ≤ 40%
[4]; sprayed at 50 ppm
  control efficacy: mortality: ≥ 80%
[6]; sprayed at 50 ppm
  control efficacy: plant damage (30% or less plant damage and/or 100% mortality): ≤ 30%

## Cc1cc(C(F)(F)F)ccc1-c1ccc(F)c(-c2c([O-])[n+](Cc3cnc(Cl)s3)c3c(C)cccn3c2=O)c1 [Compound 432]
[2]; sprayed at 10 ppm
  control efficacy: feeding damage (40% or less feeding damage and/or 100% mortality): ≤ 40%
[3]; sprayed at 10 ppm
  control efficacy: feeding damage (40% or less feeding damage and/or 100% mortality): ≤ 40%
[4]; sprayed at 50 ppm
  control efficacy: mortality: ≥ 80%
[6]; sprayed at 50 ppm
  control efficacy: plant damage (30% or less plant damage and/or 100% mortality): ≤ 30%

## Cc1cc(C(F)(F)F)ccc1-c1cc(F)cc(-c2c([O-])[n+](Cc3cnc(Cl)s3)c3c(C)cccn3c2=O)c1 [Compound 435]
[2]; sprayed at 10 ppm
  control efficacy: feeding damage (40% or less feeding damage and/or 100% mortality): ≤ 40%
[3]; sprayed at 10 ppm
  control efficacy: feeding damage (40% or less feeding damage and/or 100% mortality): ≤ 40%
[4]; sprayed at 50 ppm
  control efficacy: mortality: ≥ 80%
[6]; sprayed at 50 ppm
  control efficacy: plant damage (30% or less plant damage and/or 100% mortality): ≤ 30%

## Cc1cccn2c(=O)c(-c3cccc(-c4ccc(C#N)cc4F)c3)c([O-])[n+](Cc3cnc(Cl)s3)c12 [Compound 438]
[2]; sprayed at 10 ppm
  control efficacy: feeding damage (40% or less feeding damage and/or 100% mortality): ≤ 40%
[3]; sprayed at 10 ppm
  control efficacy: feeding damage (40% or less feeding damage and/or 100% mortality): ≤ 40%
[4]; sprayed at 10 ppm
  control efficacy: mortality: ≥ 80%
[4]; sprayed at 50 ppm
  control efficacy: mortality: ≥ 80%
[6]; sprayed at 50 ppm
  control efficacy: plant damage (30% or less plant damage and/or 100% mortality): ≤ 30%

## Cc1cc(C(F)(F)F)ccc1-c1cc(-c2c([O-])[n+](Cc3cnc(Cl)s3)c3c(C)cccn3c2=O)ccc1C [Compound 440]
[2]; sprayed at 10 ppm
  control efficacy: feeding damage (40% or less feeding damage and/or 100% mortality): ≤ 40%
[3]; sprayed at 10 ppm
  control efficacy: feeding damage (40% or less feeding damage and/or 100% mortality): ≤ 40%
[4]; sprayed at 10 ppm
  control efficacy: mortality: ≥ 80%
[4]; sprayed at 50 ppm
  control efficacy: mortality: ≥ 80%
[6]; sprayed at 50 ppm
  control efficacy: plant damage (30% or less plant damage and/or 100% mortality): ≤ 30%

## Cc1cccn2c(=O)c(-c3ccc(F)c(-c4ccc(C(F)(F)F)cc4C(F)(F)F)c3)c([O-])[n+](Cc3cnc(Cl)s3)c12 [Compound 443]
[2]; sprayed at 10 ppm
  control efficacy: feeding damage (40% or less feeding damage and/or 100% mortality): ≤ 40%
[3]; sprayed at 10 ppm
  control efficacy: feeding damage (40% or less feeding damage and/or 100% mortality): ≤ 40%
[4]; sprayed at 10 ppm
  control efficacy: mortality: ≥ 80%
[4]; sprayed at 50 ppm
  control efficacy: mortality: ≥ 80%
[6]; sprayed at 50 ppm
  control efficacy: plant damage (30% or less plant damage and/or 100% mortality): ≤ 30%
